# Laboratory results as given in the supplement of paper PMC8728848.
# This is one part of the list.
# Tests used:
# Assay in all cases: glycan array binding signal (z-score within array); higher = stronger binding
# Conditions in all cases: glycan notation: IUPAC condensed, linker removed
# [1] = molecular target: Gal(a1-3)Gal(b1-4)GlcNAc(b1-2)Man
# Procedure, shortened: (§1)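 Columns mapping to the same glycan were averaged after glycan names were converted to IUPAC-condensed notation. The data come from 3228 arrays in the Consortium for Functional Glycomics database, limited to those with an available protein sequence. Binding is reported as a within-array Z-score averaged across arrays of one protein sequence and across linkers.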
# [2] = molecular target: Gal(a1-3)Gal(b1-4)GlcNAc(b1-2)Man(a1-3)[Gal(a1-3)Gal(b1-4)GlcNAc(b1-2)Man(a1-6)]Man(b1-4)GlcNAc(b1-4)GlcNAc
# Procedure, shortened: as §1
# [3] = molecular target: Gal(a1-3)Gal(b1-4)GlcNAc(b1-3)GalNAc
# Procedure, shortened: as §1
# [4] = molecular target: Gal(a1-3)Gal(b1-4)GlcNAc(b1-6)GalNAc
# Procedure, shortened: as §1
# [5] = molecular target: Gal(a1-3)Gal(b1-4)[Fuc(a1-3)]GlcNAc
# Procedure, shortened: as §1
# [6] = molecular target: Gal(a1-3)Gal(b1-4)[Fuc(a1-3)]GlcNAc(b1-2)Man(a1-3)[Gal(a1-3)Gal(b1-4)[Fuc(a1-3)]GlcNAc(b1-2)Man(a1-6)]Man(b1-4)GlcNAc(b1-4)GlcNAc
# Procedure, shortened: as §1
# Gal(a1-3)GalNAc = molecular target: Gal(a1-3)GalNAc
# Procedure, shortened: as §1
# [7] = molecular target: Gal(a1-3)[Gal(a1-4)]Gal(b1-4)GlcNAc
# Procedure, shortened: as §1
# [8] = molecular target: Gal(a1-4)Gal(b1-3)GlcNAc(b1-2)Man(a1-3)[Gal(a1-4)Gal(b1-3)GlcNAc(b1-2)Man(a1-6)]Man(b1-4)GlcNAc(b1-4)GlcNAc
# Procedure, shortened: as §1
# Gal(a1-4)Gal(b1-4)Glc = molecular target: Gal(a1-4)Gal(b1-4)Glc
# Procedure, shortened: as §1
# Gal(a1-4)Gal(b1-4)GlcNAc = molecular target: Gal(a1-4)Gal(b1-4)GlcNAc
# Procedure, shortened: as §1
# [9] = molecular target: Gal(a1-4)Gal(b1-4)GlcNAc(b1-2)Man(a1-3)[Gal(a1-4)Gal(b1-4)GlcNAc(b1-2)Man(a1-6)]Man(b1-4)GlcNAc(b1-4)GlcNAc
# Procedure, shortened: as §1
# [10] = molecular target: Gal(a1-4)Gal(b1-4)GlcNAc(b1-3)Gal(b1-4)Glc
# Procedure, shortened: as §1
# Gal(a1-4)GlcNAc = molecular target: Gal(a1-4)GlcNAc
# Procedure, shortened: as §1
# Gal(a1-6)Glc = molecular target: Gal(a1-6)Glc
# Procedure, shortened: as §1
# Gal(b1-2)Gal = molecular target: Gal(b1-2)Gal
# Procedure, shortened: as §1
# Gal(b1-3)Gal = molecular target: Gal(b1-3)Gal
# Procedure, shortened: as §1
# Gal(b1-3)Gal(b1-4)GlcNAc = molecular target: Gal(b1-3)Gal(b1-4)GlcNAc
# Procedure, shortened: as §1
# Gal(b1-3)GalNAc = molecular target: Gal(b1-3)GalNAc
# Procedure, shortened: as §1
# [11] = molecular target: Gal(b1-3)GalNAc(a1-3)[Fuc(a1-2)]Gal(b1-4)Glc
# Procedure, shortened: as §1
# [12] = molecular target: Gal(b1-3)GalNAc(a1-3)[Fuc(a1-2)]Gal(b1-4)GlcNAc
# Procedure, shortened: as §1
# Gal(b1-3)GalNAc(b1-3)Gal = molecular target: Gal(b1-3)GalNAc(b1-3)Gal
# Procedure, shortened: as §1
binder,measurement,setting,value
his-Lectin-24A (Drosophila melanogaster) (protein) MFRLSVLVLNLLLVSHEFSAGTAKIEIQPLPALCNGYCFPTLKPVMEYVAIHQDKWNTCTEILANEARKDQIQLNIQLDALKADVSNIKASQLSKDEKLDRMEREQFAMHESLETINRYLTVKLDRTKLQLEAIKNTMDYMKAQMDGYFSAINGVQCLQPGFEKIGDRYFYIEEDVELNWLDAQAKCRRMGGHLASIKTKQEFDAIVEKLDDSKSYFLGVNENTKTGDFVSAASGKSCLYHEWGPGEPHHNNDQERCVSILRKLMHVGNCTYEKRFICQYGI,glycan array binding signal (z-score),[1],1.07
same,glycan array binding signal (z-score),[2],1.53
same,glycan array binding signal (z-score),[3],-0.324
same,glycan array binding signal (z-score),[4],0.032
same,glycan array binding signal (z-score),[5],0.409
same,glycan array binding signal (z-score),[6],0.204
same,glycan array binding signal (z-score),Gal(a1-3)GalNAc,-0.384
same,glycan array binding signal (z-score),[7],-1.64
same,glycan array binding signal (z-score),[8],-0.397
same,glycan array binding signal (z-score),Gal(a1-4)Gal(b1-4)Glc,-1.41
same,glycan array binding signal (z-score),Gal(a1-4)Gal(b1-4)GlcNAc,0.734
same,glycan array binding signal (z-score),[9],1.02
same,glycan array binding signal (z-score),[10],-0.369
same,glycan array binding signal (z-score),Gal(a1-4)GlcNAc,-0.665
same,glycan array binding signal (z-score),Gal(a1-6)Glc,-1.35
same,glycan array binding signal (z-score),Gal(b1-2)Gal,0.287
same,glycan array binding signal (z-score),Gal(b1-3)Gal,-1.59
same,glycan array binding signal (z-score),Gal(b1-3)Gal(b1-4)GlcNAc,-0.367
same,glycan array binding signal (z-score),Gal(b1-3)GalNAc,0.106
same,glycan array binding signal (z-score),[11],-0.33
same,glycan array binding signal (z-score),[12],0.9
same,glycan array binding signal (z-score),Gal(b1-3)GalNAc(b1-3)Gal,0.185

# 2 consecutive entries out of the list so far, for reference:
binder,measurement,setting,value
his-Lectin-24A (Drosophila melanogaster) (protein) MFRLSVLVLNLLLVSHEFSAGTAKIEIQPLPALCNGYCFPTLKPVMEYVAIHQDKWNTCTEILANEARKDQIQLNIQLDALKADVSNIKASQLSKDEKLDRMEREQFAMHESLETINRYLTVKLDRTKLQLEAIKNTMDYMKAQMDGYFSAINGVQCLQPGFEKIGDRYFYIEEDVELNWLDAQAKCRRMGGHLASIKTKQEFDAIVEKLDDSKSYFLGVNENTKTGDFVSAASGKSCLYHEWGPGEPHHNNDQERCVSILRKLMHVGNCTYEKRFICQYGI,glycan array binding signal (z-score),Gal(b1-2)Gal,0.287
same,glycan array binding signal (z-score),Gal(b1-3)Gal,-1.59
